# Reference: publication PMC10940316
# No constants are given. Whether binding was seen depends on the method and setting. Binding seen in cells or lysates may run through a third protein. Binding calls can cover weak binding; strength is not graded here.
# B1: P0, endogenous in rat sciatic nerve (protein, UniProt P06907 30-248)
# chain: IVVYTDREVYGAVGSQVTLHCSFWSSEWVSDDISFTWRYQPEGGRDAISIFHYAKGQPYIDEVGTFKERIQWVGDPSWKDGSIVIHNLDYSDNGTFTCDVKNPPDIVGKTSQVTLYVFEKVPTRYGVVLGAVIGGILGVVLLLLLLFYLIRYCWLRRQAALQRRLSAMEKGKFHKSSKDSSKRGRQTPVLYAMLDHSRSTKAASEKKSKGLGESRKDKK
# Biological target: PMP22 with a C-terminal ALFA-tag
# Experiment: pull-down; 10 µg purified PMP22-ALFA bound to ALFA-Selector CE magnetic beads, incubated 2 h at 4 °C with precleared rat sciatic nerve (P18) lysate (140 µg protein, 0.23% DDM diluted to 0.047%) of WT and CMT1A rats; six washes, elution with ALFA-peptide; empty beads as control; Western blot; only the target purified
binder,measurement,value
B1,binding,binds
